This is one part of the list.

The chains behind the UniProt entries cited, without tags or fusion partners. Where a name states a change or a piece, a line headed by the entry shows the natural chain unless it says otherwise.
UniProt P34059: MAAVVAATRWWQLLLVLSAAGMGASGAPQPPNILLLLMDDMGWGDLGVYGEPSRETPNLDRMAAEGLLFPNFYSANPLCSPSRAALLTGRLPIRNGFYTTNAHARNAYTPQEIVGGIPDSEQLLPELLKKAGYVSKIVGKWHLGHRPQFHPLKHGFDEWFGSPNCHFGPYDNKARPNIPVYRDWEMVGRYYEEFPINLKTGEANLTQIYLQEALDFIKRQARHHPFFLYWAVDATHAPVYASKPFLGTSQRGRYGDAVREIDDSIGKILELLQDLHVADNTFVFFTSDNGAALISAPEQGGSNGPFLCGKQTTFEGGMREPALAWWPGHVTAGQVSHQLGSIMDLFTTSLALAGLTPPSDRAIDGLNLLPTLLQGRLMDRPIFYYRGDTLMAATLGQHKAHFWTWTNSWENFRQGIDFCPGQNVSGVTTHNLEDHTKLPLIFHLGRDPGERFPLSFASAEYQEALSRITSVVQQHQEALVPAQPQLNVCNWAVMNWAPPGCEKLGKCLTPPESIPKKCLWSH
UniProt P07902: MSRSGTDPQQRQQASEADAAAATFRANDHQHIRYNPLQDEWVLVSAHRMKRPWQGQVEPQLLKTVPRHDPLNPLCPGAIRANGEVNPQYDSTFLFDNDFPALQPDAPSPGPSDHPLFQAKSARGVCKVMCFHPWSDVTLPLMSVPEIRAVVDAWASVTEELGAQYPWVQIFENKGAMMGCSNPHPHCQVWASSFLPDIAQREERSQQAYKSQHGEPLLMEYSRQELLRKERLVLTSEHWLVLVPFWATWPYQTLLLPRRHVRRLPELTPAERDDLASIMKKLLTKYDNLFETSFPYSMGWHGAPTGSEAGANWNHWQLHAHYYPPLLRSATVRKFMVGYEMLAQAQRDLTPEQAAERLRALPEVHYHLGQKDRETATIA
UniProt Q969S9: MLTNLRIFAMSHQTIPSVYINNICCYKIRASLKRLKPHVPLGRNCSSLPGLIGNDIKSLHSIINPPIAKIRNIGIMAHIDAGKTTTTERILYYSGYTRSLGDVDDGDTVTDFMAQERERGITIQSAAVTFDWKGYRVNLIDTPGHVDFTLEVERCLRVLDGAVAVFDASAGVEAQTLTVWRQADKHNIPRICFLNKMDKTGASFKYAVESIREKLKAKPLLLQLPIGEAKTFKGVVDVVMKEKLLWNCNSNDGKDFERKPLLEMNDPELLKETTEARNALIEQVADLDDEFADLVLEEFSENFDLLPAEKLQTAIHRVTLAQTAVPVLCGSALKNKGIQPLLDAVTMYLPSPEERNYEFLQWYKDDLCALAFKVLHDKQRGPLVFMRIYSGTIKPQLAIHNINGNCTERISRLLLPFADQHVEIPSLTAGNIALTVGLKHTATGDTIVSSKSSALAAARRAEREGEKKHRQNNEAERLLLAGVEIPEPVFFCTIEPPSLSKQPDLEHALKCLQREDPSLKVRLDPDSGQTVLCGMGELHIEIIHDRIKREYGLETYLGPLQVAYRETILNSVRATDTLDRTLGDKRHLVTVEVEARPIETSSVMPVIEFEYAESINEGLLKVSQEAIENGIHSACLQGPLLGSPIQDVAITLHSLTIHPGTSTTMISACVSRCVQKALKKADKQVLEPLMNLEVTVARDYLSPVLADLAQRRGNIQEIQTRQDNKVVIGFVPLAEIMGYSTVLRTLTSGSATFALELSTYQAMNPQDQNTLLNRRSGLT
UniProt Q8NCL4: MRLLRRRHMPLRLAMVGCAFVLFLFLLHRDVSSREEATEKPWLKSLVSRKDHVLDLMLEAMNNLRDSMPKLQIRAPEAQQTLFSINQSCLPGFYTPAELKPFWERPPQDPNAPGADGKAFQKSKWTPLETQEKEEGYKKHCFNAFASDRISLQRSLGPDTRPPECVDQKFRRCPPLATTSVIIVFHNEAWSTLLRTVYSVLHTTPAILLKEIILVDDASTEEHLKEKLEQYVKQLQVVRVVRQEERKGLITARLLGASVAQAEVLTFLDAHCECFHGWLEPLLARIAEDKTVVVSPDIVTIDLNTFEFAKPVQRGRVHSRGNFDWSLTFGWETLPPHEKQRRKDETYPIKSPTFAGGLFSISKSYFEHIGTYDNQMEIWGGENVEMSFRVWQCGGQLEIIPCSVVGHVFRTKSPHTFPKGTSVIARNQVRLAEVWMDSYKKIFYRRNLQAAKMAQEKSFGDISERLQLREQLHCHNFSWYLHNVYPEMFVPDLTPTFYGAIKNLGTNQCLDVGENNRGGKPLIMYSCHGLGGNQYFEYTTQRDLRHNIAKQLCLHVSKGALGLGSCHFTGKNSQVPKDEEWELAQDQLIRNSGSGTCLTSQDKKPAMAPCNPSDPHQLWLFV
UniProt P51116, whole entry, looked up: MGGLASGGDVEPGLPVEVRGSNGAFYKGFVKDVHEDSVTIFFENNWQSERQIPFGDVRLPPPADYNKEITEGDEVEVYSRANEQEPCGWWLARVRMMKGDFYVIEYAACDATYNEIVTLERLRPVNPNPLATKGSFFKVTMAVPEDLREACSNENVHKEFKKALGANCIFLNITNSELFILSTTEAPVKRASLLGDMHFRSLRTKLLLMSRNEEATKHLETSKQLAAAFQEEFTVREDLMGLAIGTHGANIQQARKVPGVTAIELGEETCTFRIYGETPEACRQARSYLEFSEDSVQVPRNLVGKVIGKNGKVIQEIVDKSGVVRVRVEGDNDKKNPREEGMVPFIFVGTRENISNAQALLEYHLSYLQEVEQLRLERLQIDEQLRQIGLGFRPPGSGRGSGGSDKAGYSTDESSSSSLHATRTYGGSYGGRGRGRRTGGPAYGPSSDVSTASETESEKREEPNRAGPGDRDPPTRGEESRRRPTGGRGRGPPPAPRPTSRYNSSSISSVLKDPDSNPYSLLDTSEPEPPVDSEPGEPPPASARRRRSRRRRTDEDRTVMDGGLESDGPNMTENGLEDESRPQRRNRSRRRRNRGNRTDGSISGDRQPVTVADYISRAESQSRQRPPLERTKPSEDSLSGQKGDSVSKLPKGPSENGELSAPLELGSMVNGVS
UniProt P51570: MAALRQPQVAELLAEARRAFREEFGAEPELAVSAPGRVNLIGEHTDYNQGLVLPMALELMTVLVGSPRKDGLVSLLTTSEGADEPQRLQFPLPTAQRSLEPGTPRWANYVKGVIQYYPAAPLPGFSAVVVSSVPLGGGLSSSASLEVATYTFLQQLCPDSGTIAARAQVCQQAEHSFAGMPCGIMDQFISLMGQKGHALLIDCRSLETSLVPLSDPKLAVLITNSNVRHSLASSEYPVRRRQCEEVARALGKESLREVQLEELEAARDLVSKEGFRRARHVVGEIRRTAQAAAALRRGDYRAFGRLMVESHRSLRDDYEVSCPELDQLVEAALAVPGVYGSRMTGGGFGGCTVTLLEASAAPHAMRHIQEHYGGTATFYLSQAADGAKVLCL
UniProt Q8WXI9: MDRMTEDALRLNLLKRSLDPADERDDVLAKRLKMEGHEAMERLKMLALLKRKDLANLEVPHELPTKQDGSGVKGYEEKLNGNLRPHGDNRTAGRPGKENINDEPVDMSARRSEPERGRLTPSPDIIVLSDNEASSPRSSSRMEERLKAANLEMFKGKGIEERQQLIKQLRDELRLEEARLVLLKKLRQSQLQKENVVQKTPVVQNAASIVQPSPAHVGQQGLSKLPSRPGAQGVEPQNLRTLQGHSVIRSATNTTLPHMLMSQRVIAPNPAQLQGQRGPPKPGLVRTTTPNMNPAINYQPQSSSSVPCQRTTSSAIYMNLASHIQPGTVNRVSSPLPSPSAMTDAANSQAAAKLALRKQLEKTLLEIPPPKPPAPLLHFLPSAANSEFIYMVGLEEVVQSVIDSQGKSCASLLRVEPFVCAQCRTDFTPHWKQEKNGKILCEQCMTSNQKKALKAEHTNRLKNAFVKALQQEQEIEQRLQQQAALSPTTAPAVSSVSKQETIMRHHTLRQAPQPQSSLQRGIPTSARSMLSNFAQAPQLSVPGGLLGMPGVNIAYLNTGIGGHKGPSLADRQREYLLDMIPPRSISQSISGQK
UniProt Q13283, whole entry, looked up: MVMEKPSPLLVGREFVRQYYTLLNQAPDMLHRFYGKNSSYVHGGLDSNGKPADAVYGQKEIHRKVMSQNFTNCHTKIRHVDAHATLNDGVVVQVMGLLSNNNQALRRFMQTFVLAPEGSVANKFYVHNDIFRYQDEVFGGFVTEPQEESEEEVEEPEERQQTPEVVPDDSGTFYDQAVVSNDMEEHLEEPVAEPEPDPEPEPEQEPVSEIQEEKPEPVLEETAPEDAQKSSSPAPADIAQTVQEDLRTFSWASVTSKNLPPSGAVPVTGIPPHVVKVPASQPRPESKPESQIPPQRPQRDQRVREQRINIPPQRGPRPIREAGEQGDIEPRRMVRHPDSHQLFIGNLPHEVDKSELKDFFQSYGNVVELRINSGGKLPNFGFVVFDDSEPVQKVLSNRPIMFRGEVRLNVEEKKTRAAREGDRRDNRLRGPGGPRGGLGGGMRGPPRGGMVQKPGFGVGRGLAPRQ
UniProt Q96CN9: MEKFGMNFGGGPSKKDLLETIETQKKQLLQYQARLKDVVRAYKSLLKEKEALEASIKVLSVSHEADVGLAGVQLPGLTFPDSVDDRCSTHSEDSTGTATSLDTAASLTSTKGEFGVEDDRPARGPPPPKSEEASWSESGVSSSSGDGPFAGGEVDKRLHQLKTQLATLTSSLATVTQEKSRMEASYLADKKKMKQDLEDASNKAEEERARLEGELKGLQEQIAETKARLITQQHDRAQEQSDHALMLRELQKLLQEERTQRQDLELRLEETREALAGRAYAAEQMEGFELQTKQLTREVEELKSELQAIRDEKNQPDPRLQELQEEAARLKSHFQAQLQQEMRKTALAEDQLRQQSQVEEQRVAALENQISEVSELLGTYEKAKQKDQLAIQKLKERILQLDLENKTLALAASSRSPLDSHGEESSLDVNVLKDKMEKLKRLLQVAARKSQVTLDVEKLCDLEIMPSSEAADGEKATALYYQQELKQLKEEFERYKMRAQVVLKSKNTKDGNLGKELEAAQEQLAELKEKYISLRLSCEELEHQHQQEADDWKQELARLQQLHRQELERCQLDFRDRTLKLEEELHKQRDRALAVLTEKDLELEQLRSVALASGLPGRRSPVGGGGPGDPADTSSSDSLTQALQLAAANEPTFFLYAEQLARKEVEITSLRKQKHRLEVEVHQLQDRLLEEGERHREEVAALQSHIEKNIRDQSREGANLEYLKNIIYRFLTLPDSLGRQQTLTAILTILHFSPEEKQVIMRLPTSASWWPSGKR
UniProt O95166, whole entry, looked up: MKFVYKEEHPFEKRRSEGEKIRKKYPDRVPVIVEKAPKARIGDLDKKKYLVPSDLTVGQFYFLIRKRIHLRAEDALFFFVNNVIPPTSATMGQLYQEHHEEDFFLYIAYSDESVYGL
UniProt Q01415: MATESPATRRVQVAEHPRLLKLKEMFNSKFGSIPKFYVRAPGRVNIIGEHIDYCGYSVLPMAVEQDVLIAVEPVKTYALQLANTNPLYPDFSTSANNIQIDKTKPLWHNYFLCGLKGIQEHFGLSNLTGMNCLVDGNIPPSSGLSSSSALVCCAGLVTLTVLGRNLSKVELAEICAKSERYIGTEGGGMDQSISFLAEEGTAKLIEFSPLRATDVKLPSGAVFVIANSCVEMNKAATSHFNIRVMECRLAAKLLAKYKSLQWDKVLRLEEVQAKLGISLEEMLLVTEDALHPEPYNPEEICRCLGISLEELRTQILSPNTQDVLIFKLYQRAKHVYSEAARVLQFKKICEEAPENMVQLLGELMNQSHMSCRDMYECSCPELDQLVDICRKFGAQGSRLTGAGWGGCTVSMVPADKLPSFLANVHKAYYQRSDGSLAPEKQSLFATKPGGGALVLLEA
UniProt Q04446: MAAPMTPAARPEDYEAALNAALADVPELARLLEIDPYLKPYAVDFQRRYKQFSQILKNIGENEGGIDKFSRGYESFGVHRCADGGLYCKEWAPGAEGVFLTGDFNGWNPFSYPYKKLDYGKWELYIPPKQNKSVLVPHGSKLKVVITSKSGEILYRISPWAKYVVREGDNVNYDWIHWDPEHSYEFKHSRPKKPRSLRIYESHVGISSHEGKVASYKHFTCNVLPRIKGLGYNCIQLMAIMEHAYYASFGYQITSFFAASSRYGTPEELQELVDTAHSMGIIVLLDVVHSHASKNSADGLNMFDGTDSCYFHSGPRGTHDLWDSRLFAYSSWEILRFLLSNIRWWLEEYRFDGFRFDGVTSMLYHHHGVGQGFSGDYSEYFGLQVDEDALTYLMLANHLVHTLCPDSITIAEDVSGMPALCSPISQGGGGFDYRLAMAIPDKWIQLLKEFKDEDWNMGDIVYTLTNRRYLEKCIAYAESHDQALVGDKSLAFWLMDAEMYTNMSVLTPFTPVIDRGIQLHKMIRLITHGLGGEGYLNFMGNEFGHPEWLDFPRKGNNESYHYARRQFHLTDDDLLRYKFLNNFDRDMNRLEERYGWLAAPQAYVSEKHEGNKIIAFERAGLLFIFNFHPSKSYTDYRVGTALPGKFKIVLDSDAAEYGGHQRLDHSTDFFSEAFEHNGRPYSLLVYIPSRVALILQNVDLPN

Drawing on the supplement of paper PMC10849652, this text covers log2 fold change for 39 targets.

Compound in one experiment: O=C(CCCCCCC(=O)Nc1ccccc1)NO [vorinostat]
The experiment in a line: log2 fold change, soluble protein after heating vs DMSO (PISA); higher = thermal stabilisation; K562 lysate, 10 uM; active = over 0.2 and 3.5 SD of the protein, either way, in both replicates (recomputed). In a few lines:
(§1)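 Pellets of K562 cells were dounce-homogenised in PBS pH 7.4 with 1 mM MgCl2, and the crude extract was held at 1 mg/mL protein for a 30 min treatment with 10 μM compound. Aliquots were heated for 3 min over 48°C-58°C and pooled before NP-40 was added to 0.5% at 4°C. The supernatant from 21,000xg for 90 min was quantified by TMTpro 16plex LC-MS/MS with channel sums equalised. Values are reported from duplicates as log-two fold change in thermal stability relative to solvent controls.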
On to GALNS (UniProt P34059), for which the log2 fold change was inactive: 0.087.

For GAPVD1 isoform 6 (UniProt Q14C86), the log2 fold change was active: -0.292.

As to GALT (UniProt P07902), the log2 fold change was inactive: 0.116.

For the target GEMIN8 (UniProt Q9NWZ8), the log2 fold change was inactive: -0.155.

Consider FTL (UniProt P02792), for which the log2 fold change is inactive: 0.018.

As for GAB1 isoform 2 (UniProt Q13480), the log2 fold change is inactive: -0.064.

In the case of GCAT isoform 2 (UniProt O75600), the log2 fold change was inactive: -0.071.

Consider GFM2 (UniProt Q969S9), for which the log2 fold change is inactive: -0.153.

As to GALNT6 (UniProt Q8NCL4), the log2 fold change is inactive: 0.082.

As for GATC (UniProt O43716), the log2 fold change is inactive: 0.069.

FURIN (UniProt P09958): the log2 fold change was inactive: 0.048.

FPGT (UniProt O14772): the log2 fold change was active: -0.574.

GATAD2A isoform 3 (UniProt Q86YP4): the log2 fold change is active: -0.213.

With FXR2 (UniProt P51116), the log2 fold change was active: -0.25.

Turning to GFM1 (UniProt Q96RP9), the log2 fold change is inactive: -0.043.

As for GEMIN2 (UniProt O14893), the log2 fold change is active: -0.425.

Consider FOXP4 (UniProt Q8IVH2), for which the log2 fold change is inactive: -0.207.

Take GEMIN5 (UniProt Q8TEQ6): the log2 fold change is active: -0.479.

In the case of GALK1 isoform 2 (UniProt P51570), the log2 fold change is active: -0.338.

In the case of FYB1 isoform 3 (UniProt O15117), the log2 fold change was inactive: 0.002.

In the case of GDAP1 (UniProt Q8TB36), the log2 fold change is inactive: 0.207.

In the case of GALNT7 (UniProt Q86SF2), the log2 fold change is inactive: 0.156.

GATAD2B (UniProt Q8WXI9): the log2 fold change is inactive: -0.162.

For G3BP1 (UniProt Q13283), the log2 fold change was inactive: 0.043.

On to FXN (UniProt Q16595), for which the log2 fold change is inactive: 0.138.

Take GCC1 (UniProt Q96CN9): the log2 fold change was inactive: -0.082.

Take GABARAP (UniProt O95166): the log2 fold change is inactive: 0.159.

As to FSCN1 (UniProt Q16658), the log2 fold change is inactive: 0.102.

In the case of GCLM (UniProt P48507), the log2 fold change is active: -0.277.

Turning to GALE (UniProt Q14376), the log2 fold change was inactive: -0.273.

Turning to FRMD8 (UniProt Q9BZ67), the log2 fold change is inactive: 0.003.

In the case of GANAB isoform 2 (UniProt Q14697), the log2 fold change is inactive: 0.091.

Turning to FUS (UniProt P35637), the log2 fold change is inactive: 0.115.

As for FOXRED1 (UniProt Q96CU9), the log2 fold change was inactive: -0.021.

For the target GFPT1 (UniProt Q06210), the log2 fold change is active: -0.409.

In the case of GALK2 (UniProt Q01415), the log2 fold change is inactive: -0.012.

On to FRG1 (UniProt Q14331), for which the log2 fold change was inactive: -0.063.

Turning to GBE1 (UniProt Q04446), the log2 fold change was inactive: 0.015.

For GCC2 (UniProt Q8IWJ2), the log2 fold change is inactive: -0.007.

Compound in another experiment: O=C(O)c1ccc2c(c1)nc(Nc1cccc(Cl)c1)c1ccncc12 [silmitasertib]
The experiment is described as above. Put shortly:
as §1
For GALNS (UniProt P34059), the log2 fold change was inactive: -0.017.

In the case of GAPVD1 isoform 6 (UniProt Q14C86), the log2 fold change is inactive: 0.04.

Regarding GALT (UniProt P07902), the log2 fold change is inactive: -0.136.

As to GEMIN8 (UniProt Q9NWZ8), the log2 fold change was inactive: 0.052.

On to FTL (UniProt P02792), for which the log2 fold change was inactive: 0.057.

On to GAB1 isoform 2 (UniProt Q13480), for which the log2 fold change is inactive: -0.069.

As for GCAT isoform 2 (UniProt O75600), the log2 fold change is inactive: 0.038.

On to GFM2 (UniProt Q969S9), for which the log2 fold change is inactive: 0.085.

As for GALNT6 (UniProt Q8NCL4), the log2 fold change was inactive: -0.035.

Turning to GATC (UniProt O43716), the log2 fold change was inactive: 0.047.

Take FURIN (UniProt P09958): the log2 fold change is inactive: -0.045.

FPGT (UniProt O14772): the log2 fold change was inactive: 0.008.

GATAD2A isoform 3 (UniProt Q86YP4): the log2 fold change is inactive: -0.028.

As for FXR2 (UniProt P51116), the log2 fold change is inactive: -0.039.

Consider GFM1 (UniProt Q96RP9), for which the log2 fold change is inactive: 0.043.

Turning to GEMIN2 (UniProt O14893), the log2 fold change is inactive: 0.002.

As for FOXP4 (UniProt Q8IVH2), the log2 fold change was inactive: 0.

Consider GEMIN5 (UniProt Q8TEQ6), for which the log2 fold change was inactive: 0.004.

Turning to GALK1 isoform 2 (UniProt P51570), the log2 fold change was inactive: 0.063.

Take FYB1 isoform 3 (UniProt O15117): the log2 fold change was inactive: -0.021.

Consider GDAP1 (UniProt Q8TB36), for which the log2 fold change is inactive: 0.021.

As for GALNT7 (UniProt Q86SF2), the log2 fold change is inactive: -0.037.

On to GATAD2B (UniProt Q8WXI9), for which the log2 fold change is inactive: -0.056.

For the target G3BP1 (UniProt Q13283), the log2 fold change is inactive: 0.

Regarding FXN (UniProt Q16595), the log2 fold change was inactive: -0.065.

GCC1 (UniProt Q96CN9): the log2 fold change is inactive: 0.016.

For GABARAP (UniProt O95166), the log2 fold change is inactive: 0.056.

As to FSCN1 (UniProt Q16658), the log2 fold change is inactive: 0.011.

As for GCLM (UniProt P48507), the log2 fold change was inactive: -0.013.

Take GALE (UniProt Q14376): the log2 fold change was inactive: 0.085.

FRMD8 (UniProt Q9BZ67): the log2 fold change is inactive: 0.02.

In the case of GANAB isoform 2 (UniProt Q14697), the log2 fold change is inactive: 0.011.

For FUS (UniProt P35637), the log2 fold change was inactive: 0.005.

As to FOXRED1 (UniProt Q96CU9), the log2 fold change is inactive: 0.011.

For GFPT1 (UniProt Q06210), the log2 fold change was inactive: 0.004.

For GALK2 (UniProt Q01415), the log2 fold change is inactive: 0.04.

Regarding FRG1 (UniProt Q14331), the log2 fold change was inactive: -0.002.

On to GBE1 (UniProt Q04446), for which the log2 fold change is inactive: 0.019.

For the target GCC2 (UniProt Q8IWJ2), the log2 fold change is inactive: -0.014.
